This is one part of the list.
Experiments:
Assay in all cases: log2 fold change, soluble protein after heating vs DMSO (PISA); higher = thermal stabilisation; K562 cells, 10 uM, 30 min; active = over 0.2 and 3.5 SD of the protein, either way, in both replicates (recomputed)
[1] = compound: C1=CC=C(C=C1)[C@H](COC2=CC3=C(C=C2)NC(=O)N3)NC(=O)C4=CC=CN(C4=O)CC5=CC(=C(C=C5)F)F
Summary of the method: (§1)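 Soluble protein was quantified by TMTpro 16plex LC-MS/MS after channel sums were equalised. It was obtained as the supernatant after 21,000xg for 90 min from pooled aliquots of K562 cells (2×10^6 cells/mL, 10 μM compound, 30 min) heated for 3 min across 48°C-58°C and extracted in PBS with 0.5% NP-40 at 4°C. Thermal stability values are relative to control samples and come from duplicates. They are given as log2 fold changes.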

Amino acid sequences for entries named in this document (tags omitted). A change or cut given only in a name is not applied to a line headed by its entry.
UniProt Q9Y519: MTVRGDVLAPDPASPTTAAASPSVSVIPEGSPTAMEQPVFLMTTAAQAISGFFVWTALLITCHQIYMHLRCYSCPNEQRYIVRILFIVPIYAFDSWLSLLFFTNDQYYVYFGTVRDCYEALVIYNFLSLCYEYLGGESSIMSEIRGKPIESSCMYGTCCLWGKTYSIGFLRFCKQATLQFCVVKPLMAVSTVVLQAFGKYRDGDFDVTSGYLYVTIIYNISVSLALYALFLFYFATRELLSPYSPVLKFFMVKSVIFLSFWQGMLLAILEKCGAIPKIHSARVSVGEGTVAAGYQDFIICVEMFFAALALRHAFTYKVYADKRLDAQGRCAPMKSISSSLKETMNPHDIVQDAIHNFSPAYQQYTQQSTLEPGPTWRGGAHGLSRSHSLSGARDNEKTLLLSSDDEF
UniProt O95379: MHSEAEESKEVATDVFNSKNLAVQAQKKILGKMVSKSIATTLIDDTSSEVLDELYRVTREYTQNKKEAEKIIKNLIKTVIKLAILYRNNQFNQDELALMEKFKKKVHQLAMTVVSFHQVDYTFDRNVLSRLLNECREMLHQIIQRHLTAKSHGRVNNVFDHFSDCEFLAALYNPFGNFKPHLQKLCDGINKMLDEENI
UniProt Q9H1K6: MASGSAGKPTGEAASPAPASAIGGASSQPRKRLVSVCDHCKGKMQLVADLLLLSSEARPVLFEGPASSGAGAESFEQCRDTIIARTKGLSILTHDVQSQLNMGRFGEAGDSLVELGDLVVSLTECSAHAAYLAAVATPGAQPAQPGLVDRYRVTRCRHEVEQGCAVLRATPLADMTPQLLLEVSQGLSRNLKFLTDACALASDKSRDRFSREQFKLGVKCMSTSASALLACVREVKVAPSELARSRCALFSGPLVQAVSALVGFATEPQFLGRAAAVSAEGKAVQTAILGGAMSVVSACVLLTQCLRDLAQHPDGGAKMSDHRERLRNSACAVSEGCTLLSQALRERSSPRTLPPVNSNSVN
UniProt O75204: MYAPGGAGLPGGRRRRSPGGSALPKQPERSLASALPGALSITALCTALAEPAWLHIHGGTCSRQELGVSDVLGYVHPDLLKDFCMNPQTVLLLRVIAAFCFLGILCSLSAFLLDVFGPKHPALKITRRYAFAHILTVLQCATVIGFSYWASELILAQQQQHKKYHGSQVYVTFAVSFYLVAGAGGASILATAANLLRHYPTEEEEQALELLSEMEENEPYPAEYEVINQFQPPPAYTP
UniProt Q96B96: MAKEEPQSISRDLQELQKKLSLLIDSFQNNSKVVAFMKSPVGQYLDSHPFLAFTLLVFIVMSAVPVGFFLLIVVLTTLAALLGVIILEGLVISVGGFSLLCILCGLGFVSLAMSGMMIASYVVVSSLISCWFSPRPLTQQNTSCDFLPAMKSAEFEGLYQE
UniProt Q9BSE2: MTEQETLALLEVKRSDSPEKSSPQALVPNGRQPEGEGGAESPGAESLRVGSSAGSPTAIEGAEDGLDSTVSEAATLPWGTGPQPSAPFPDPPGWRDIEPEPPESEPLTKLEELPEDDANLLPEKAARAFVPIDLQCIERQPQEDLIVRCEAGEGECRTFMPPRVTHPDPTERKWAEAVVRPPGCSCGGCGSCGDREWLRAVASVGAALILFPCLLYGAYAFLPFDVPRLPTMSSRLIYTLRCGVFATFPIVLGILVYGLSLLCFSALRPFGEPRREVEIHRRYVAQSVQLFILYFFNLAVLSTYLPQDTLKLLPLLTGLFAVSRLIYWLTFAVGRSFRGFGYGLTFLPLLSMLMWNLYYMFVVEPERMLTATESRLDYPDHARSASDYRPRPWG
UniProt Q96Q45: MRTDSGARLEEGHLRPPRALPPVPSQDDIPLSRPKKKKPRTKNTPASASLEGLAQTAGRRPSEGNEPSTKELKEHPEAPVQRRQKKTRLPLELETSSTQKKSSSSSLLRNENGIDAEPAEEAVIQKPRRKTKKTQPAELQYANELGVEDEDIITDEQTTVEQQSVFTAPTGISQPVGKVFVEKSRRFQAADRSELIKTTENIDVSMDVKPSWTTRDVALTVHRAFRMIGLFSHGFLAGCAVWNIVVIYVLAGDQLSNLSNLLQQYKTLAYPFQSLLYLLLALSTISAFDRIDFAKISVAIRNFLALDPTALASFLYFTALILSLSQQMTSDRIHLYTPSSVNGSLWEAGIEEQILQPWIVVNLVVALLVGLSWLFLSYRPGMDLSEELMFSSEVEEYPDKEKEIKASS
UniProt Q9BVX2: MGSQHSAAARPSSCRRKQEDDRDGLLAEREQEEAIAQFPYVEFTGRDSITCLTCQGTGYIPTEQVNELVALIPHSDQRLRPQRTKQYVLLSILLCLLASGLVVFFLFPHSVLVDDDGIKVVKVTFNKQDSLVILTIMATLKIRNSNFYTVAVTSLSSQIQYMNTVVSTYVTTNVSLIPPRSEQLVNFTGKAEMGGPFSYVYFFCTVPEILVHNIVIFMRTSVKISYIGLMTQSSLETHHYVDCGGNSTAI
UniProt Q96HV5: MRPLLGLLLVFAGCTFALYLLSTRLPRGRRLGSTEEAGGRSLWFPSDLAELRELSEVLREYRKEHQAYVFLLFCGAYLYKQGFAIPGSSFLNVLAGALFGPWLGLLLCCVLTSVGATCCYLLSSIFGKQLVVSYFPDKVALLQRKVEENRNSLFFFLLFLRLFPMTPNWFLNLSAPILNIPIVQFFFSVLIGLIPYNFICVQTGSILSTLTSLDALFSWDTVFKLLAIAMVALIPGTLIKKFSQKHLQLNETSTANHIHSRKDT
UniProt P21580: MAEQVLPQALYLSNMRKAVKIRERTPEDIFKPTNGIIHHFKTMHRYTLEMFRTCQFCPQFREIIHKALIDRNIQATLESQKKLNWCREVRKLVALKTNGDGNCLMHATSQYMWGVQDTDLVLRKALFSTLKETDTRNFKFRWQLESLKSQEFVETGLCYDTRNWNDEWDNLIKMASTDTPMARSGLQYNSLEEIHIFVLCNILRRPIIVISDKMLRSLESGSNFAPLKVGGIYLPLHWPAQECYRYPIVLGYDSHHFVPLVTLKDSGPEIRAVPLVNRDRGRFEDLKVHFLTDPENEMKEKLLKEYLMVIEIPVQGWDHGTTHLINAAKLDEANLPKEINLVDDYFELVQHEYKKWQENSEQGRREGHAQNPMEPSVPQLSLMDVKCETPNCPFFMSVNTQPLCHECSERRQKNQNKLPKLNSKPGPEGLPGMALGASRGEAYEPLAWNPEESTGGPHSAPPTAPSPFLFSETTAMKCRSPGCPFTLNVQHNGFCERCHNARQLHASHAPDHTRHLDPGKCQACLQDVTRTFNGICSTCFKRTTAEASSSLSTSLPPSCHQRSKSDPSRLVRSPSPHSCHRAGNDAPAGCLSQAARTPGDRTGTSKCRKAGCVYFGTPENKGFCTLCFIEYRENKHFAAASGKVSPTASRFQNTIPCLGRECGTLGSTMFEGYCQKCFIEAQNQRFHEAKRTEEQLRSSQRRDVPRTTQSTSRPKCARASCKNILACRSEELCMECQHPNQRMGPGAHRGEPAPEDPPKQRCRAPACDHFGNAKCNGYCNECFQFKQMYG
UniProt O75069: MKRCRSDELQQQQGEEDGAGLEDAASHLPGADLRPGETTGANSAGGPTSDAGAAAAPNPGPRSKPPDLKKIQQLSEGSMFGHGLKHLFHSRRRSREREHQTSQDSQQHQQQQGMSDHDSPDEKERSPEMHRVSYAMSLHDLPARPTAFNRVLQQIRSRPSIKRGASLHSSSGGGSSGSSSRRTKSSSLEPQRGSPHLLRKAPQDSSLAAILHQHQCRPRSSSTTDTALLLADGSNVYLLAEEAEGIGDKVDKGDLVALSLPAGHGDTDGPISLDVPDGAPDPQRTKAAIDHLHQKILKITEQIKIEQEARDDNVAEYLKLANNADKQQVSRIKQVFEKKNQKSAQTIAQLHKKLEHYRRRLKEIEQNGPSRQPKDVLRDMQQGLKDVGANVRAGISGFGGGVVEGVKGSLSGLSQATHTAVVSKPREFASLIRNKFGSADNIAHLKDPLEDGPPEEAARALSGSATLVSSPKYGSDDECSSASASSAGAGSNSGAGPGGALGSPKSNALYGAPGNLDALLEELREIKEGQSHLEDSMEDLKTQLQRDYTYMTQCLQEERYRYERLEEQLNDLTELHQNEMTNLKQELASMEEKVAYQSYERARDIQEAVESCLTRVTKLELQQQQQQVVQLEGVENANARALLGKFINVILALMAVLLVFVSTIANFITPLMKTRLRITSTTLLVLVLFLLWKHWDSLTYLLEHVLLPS
UniProt Q5SNT2: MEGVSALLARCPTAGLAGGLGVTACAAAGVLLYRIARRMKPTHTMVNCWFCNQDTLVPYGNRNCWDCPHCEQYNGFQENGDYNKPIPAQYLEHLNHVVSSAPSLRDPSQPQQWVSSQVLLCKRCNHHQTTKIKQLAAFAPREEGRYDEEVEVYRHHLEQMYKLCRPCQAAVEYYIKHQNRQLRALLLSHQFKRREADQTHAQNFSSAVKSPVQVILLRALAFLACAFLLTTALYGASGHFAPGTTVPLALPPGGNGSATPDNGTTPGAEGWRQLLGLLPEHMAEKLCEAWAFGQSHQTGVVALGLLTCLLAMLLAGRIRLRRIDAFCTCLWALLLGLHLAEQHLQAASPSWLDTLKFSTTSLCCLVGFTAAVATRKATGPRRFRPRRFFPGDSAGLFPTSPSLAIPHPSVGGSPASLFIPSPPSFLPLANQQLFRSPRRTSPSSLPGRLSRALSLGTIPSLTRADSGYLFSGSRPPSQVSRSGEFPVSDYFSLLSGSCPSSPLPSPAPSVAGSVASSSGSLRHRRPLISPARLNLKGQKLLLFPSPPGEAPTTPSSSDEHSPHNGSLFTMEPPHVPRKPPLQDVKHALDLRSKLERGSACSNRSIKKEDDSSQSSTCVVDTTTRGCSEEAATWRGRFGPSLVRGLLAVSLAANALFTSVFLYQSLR
UniProt Q5T292: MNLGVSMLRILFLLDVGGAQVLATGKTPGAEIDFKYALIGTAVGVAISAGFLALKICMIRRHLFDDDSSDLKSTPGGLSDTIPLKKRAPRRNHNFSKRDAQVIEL
UniProt P19438, whole entry, looked up: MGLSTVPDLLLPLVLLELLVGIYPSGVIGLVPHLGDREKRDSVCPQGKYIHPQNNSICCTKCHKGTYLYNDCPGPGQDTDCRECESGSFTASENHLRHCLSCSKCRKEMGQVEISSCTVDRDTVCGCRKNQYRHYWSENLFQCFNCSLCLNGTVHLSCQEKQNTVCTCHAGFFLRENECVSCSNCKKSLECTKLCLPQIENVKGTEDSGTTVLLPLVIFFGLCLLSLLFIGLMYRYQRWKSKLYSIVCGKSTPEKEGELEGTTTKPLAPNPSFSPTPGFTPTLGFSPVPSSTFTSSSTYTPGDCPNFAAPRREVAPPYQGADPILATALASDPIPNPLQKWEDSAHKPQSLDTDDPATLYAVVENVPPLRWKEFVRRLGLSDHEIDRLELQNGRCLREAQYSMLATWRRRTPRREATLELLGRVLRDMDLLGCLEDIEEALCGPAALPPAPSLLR
UniProt Q03169: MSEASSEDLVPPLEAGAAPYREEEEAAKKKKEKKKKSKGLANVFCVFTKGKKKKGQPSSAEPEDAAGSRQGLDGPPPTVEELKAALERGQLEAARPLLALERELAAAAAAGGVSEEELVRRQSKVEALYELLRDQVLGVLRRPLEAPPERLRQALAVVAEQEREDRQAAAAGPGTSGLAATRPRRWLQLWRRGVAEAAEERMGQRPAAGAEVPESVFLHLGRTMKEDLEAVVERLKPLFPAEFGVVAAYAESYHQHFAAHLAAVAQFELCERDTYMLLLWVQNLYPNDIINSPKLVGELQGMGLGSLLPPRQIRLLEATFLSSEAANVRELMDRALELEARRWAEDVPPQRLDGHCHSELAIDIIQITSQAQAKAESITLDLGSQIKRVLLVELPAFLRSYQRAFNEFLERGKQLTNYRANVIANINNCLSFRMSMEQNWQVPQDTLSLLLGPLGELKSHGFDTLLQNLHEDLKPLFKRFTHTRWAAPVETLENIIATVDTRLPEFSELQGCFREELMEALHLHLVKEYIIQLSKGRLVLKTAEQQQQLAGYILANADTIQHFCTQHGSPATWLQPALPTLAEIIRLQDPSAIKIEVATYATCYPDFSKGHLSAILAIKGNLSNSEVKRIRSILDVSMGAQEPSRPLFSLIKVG
UniProt Q8NE00: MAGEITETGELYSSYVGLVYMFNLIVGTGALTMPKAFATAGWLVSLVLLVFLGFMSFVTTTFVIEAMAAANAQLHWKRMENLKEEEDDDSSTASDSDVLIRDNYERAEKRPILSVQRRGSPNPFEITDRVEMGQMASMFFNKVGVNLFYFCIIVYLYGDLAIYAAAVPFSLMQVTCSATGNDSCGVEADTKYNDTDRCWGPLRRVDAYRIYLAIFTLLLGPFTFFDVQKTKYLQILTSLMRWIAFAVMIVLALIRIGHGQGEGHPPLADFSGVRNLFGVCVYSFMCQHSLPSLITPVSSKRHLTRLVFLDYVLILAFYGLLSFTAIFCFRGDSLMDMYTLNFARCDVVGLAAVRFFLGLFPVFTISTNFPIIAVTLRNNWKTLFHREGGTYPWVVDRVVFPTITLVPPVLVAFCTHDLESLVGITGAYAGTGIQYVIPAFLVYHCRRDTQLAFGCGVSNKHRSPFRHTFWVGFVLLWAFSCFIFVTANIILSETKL

[2] = compound: Cc1sc2c(c1C)C(c1ccc(Cl)cc1)=N[C@@H](CC(=O)OC(C)(C)C)c1nnc(C)n1-2
Summary of the method: as §1

[3] = compound: CC1=C(SC2=C1C(=N[C@H](C3=NN=C(N32)C)CC(=O)N)C4=CC=C(C=C4)Cl)C
Summary of the method: as §1

[4] = compound: CC1=C2C(=CC=C1)N=C(N(C2=O)C3=CC=CC=C3C)CN4C=NC5=C(N=CN=C54)N
Summary of the method: as §1

[5] = compound: c1ccc([C@@H]2C[C@H]2NC2CCNCC2)cc1
Summary of the method: as §1

Row | Target | log2 fold change [1] | log2 fold change [2] | log2 fold change [3] | log2 fold change [4] | log2 fold change [5]
1 | TMEM184B (UniProt Q9Y519) | inactive: 0.04 | inactive: 0.041 |  |  | 
2 | TNFAIP8 isoform 4 (UniProt O95379) | inactive: -0.021 | inactive: -0.042 | inactive: 0.026 | inactive: 0.02 | inactive: -0.011
3 | TLNRD1 (UniProt Q9H1K6) |  | inactive: -0.06 | inactive: -0.021 |  | inactive: -0.104
4 | TMEM127 (UniProt O75204) |  | inactive: -0.05 | inactive: 0.086 |  | inactive: 0.041
5 | TMC6 (UniProt Q7Z403) |  | inactive: 0.168 | inactive: 0.057 | inactive: -0.016 | inactive: -0.16
6 | TMEM268 isoform 3 (UniProt Q5VZI3) | inactive: -0.008 | inactive: 0.151 | inactive: 0 |  | inactive: 0.063
7 | TMEM159 isoform 2 (UniProt Q96B96) | inactive: -0.205 | inactive: -0.127 |  |  | 
8 | TMEM79 (UniProt Q9BSE2) | inactive: -0.16 | inactive: -0.357 |  |  | 
9 | TMEM120B (UniProt A0PK00) |  | inactive: -0.178 | inactive: 0.204 | inactive: -0.168 | inactive: -0.057
10 | TMEM35B (UniProt Q8NCS4) | inactive: -0.011 | inactive: -0.253 |  | inactive: 0.166 | 
11 | TMEM237 isoform 3 (UniProt Q96Q45) |  | inactive: 0.162 |  | inactive: -0.217 | 
12 | TMEM106C (UniProt Q9BVX2) | inactive: 0.201 |  |  | inactive: -0.263 | 
13 | TMEM59 (UniProt Q9BXS4) |  | inactive: 0.089 | inactive: 0.01 |  | inactive: 0.035
14 | TMEM143 (UniProt Q96AN5) |  | inactive: -0.138 |  |  | 
15 | TMEM160 (UniProt Q9NX00) | inactive: 0.085 | inactive: 0.165 | inactive: 0.01 | inactive: 0.074 | inactive: -0.069
16 | TMEM41A (UniProt Q96HV5) | inactive: 0.01 | inactive: -0.08 |  | inactive: 0.06 | 
17 | TMEM131 (UniProt Q92545) |  | inactive: -0.023 |  |  | 
18 | TNFAIP3 (UniProt P21580) | inactive: 0.098 |  | inactive: -0.034 | inactive: 0.077 | inactive: -0.073
19 | TMCC1 (UniProt O94876) |  |  | inactive: 0.071 |  | inactive: -0.032
20 | TMCC2 (UniProt O75069) |  |  | inactive: -0.025 |  | inactive: -0.077
21 | TMEM129 |  | inactive: -0.09 |  |  | 
22 | TMEM201 (UniProt Q5SNT2) | inactive: -0.03 | inactive: 0.159 | inactive: 0.174 |  | inactive: 0.029
23 | TMEM273 isoform 2 (UniProt Q5T292) |  | inactive: -0.178 |  | inactive: 0.046 | 
24 | TMEM167B (UniProt Q9NRX6) | inactive: -0.018 | inactive: 0.01 |  | inactive: 0.059 | 
25 | TNFRSF1A (UniProt P19438) |  | inactive: 0.105 | inactive: -0.223 |  | inactive: -0.234
26 | TNFAIP2 (UniProt Q03169) | inactive: 0.069 | inactive: 0.064 |  |  | 
27 | TMEM104 (UniProt Q8NE00) |  |  | inactive: 0.001 |  | inactive: 0.24
28 | TMEM69 (UniProt Q5SWH9) | inactive: -0.058 | inactive: -0.025 | inactive: 0.117 |  | inactive: -0.03
29 | TMEM175 (UniProt Q9BSA9) |  | inactive: -0.026 |  |  | 

Record cards (already shown).
TLNRD1 (UniProt Q9H1K6) as listed: log2 fold change [2]: inactive: -0.06; log2 fold change [3]: inactive: -0.021; log2 fold change [5]: inactive: -0.104
TMEM201 (UniProt Q5SNT2) as listed: log2 fold change [1]: inactive: -0.03; log2 fold change [2]: inactive: 0.159; log2 fold change [3]: inactive: 0.174; log2 fold change [5]: inactive: 0.029

Reference: the supplement of paper PMC10849652
